Source: paper PMC9161877
These are yes or no findings as the source states them, for the method shown. In cells and extracts the contact can be indirect. Some results given as binding are weak or reduced against the parent protein; the word gives no strength.

Chains of the proteins cited; added tags and fusions are not shown.
UniProt Q15906: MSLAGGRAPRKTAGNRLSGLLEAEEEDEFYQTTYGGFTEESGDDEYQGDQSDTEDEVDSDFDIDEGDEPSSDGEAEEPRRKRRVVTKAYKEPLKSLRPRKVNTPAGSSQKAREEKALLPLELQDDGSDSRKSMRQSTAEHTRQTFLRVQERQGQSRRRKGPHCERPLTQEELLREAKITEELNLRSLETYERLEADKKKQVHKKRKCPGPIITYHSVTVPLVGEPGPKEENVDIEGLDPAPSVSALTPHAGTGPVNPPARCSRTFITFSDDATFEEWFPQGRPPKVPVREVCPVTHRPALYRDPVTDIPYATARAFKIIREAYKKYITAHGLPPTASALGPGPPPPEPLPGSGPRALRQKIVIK
UniProt Q92993: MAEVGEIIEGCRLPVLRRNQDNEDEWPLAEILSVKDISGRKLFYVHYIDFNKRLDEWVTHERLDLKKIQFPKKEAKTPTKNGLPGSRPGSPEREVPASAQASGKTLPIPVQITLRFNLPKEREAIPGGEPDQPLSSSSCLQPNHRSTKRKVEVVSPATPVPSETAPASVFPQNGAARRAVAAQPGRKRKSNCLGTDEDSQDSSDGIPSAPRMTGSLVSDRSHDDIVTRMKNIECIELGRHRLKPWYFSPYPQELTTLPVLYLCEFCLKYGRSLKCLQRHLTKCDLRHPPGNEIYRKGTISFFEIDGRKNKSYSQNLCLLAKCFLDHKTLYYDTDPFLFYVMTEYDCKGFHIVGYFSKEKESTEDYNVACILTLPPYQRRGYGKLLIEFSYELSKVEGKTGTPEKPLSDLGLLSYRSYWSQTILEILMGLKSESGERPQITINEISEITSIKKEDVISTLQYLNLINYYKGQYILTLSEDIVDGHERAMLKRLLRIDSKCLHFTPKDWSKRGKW

Biological target: Vacuolar protein sorting-associated protein 72 homolog (VPS72) (human (endogenous in HuH7)) (UniProt Q15906)
Experiment: co-IP; HuH7 cells lysed in RIPA buffer with protease inhibitor cocktail; supernatants incubated with corresponding antibodies overnight at 4°C; protein A + G Agarose 2 h; washed with PBS; western blot

binding: binds
Substance: lysine acetyltransferase 5 (KAT5) (from UniProt Q92993 1-513)
